No constants are given. Whether binding was seen depends on the method and setting. Some entries that bind do so weakly or less than the wild type.
Target: CD40-Ig (a soluble fusion protein of CD40 and human immunoglobulin) (UniProt P25942)
Assay: S2C6 pre-incubated with 25 µg/ml soluble CD40-Ig

The chains behind the UniProt entries cited, without tags or fusion partners. Residues count along the entry.
UniProt P25942, residues 21-193: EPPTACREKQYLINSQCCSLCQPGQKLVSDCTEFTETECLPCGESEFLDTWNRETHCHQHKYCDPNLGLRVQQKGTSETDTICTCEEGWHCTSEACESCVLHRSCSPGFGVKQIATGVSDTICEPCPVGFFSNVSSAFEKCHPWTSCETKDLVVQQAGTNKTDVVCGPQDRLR

B1: monoclonal antibody S2C6 (antibody, V domains shown)
VH: EVQLQQSGPDLVKPGASVKISCKASGYSFTGYYIHWVKQSHGKSLEWIGRVIPNNGGTSYNQKFKGKAILTVDKSSSTAYMELRSLTSEDSAVYYCAREGIYWWGHGTTLTVSS
VL: DVVVTQTPLSLPVSLGAQASISCRSSQSLVHSNGNTFLHWYLQKPGQSPKLLIYTVSNRFSGVPDRFSGSGSGTDFTLKISRVEAEDLGVYFCSQTTHVPWTFGGGTKLEIQ
binding: binds
